Paper PMC5669951
Results are given in words; binding and its absence hold for the method and conditions named. In cells and extracts the contact can be indirect. Some entries that bind do so weakly or less than the wild type. For some of these results: Tags and fused reporters may be left off the sequences shown. Values belong to the binder of their own block, whether it stands above or below them.

How the values were obtained:
[1] = biological target: T1, Myc-RLIM (RING finger LIM domain-binding protein, Myc tagged) (UniProt Q9NVW2); assay: co-IP; HEK 293T cells co-transfected with tagged constructs, lysed 48 h after transfection (20 mM Tris-HCl pH 7.4, 2 mM EDTA, 25 mM NaF, 1% Triton X-100); IP with Myc, Flag or HA antibody and protein A/G beads overnight at 4 °C; immunoblotting; in Figure 4E with or without HA-RLIM (1 or 2 μg)
T1 sequence: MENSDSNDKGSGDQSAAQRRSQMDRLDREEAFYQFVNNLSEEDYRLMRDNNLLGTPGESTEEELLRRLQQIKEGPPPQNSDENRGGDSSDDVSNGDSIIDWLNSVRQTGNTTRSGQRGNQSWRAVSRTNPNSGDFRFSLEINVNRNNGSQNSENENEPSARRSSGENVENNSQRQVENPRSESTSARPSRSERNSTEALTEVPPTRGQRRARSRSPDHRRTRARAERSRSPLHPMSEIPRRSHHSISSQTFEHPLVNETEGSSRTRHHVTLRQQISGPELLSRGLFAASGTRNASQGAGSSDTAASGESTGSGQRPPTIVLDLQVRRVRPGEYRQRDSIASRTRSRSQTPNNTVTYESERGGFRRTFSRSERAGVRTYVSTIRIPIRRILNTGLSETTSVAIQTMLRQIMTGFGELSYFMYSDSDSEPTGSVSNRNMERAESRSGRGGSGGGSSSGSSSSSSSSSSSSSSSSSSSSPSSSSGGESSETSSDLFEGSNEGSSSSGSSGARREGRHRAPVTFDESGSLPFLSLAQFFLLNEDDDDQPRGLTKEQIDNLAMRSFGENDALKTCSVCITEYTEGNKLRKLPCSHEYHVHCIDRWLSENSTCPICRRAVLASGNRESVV

[2] = biological target: T2, endogenous RLIM (human (endogenous in SK-Hep1 and HepG2)) (UniProt Q9NVW2); assay: co-IP; endogenous proteins; IP of endogenous RLIM from SK-Hep1 and HepG2 lysates, or of endogenous c-MYC from SK-Hep1 cells infected with RFP or RLIM adenovirus or transfected with scramble or RLIM siRNAs; protein A/G beads overnight at 4 °C; immunoblotting
T2 sequence: T1 sequence

[3] = biological target: T3, Flag-MIZ1 (MYC-interacting zinc-finger protein 1, Flag tagged) (UniProt Q13105); assay: co-IP; HEK 293T cells co-transfected with tagged constructs, lysed 48 h after transfection (20 mM Tris-HCl pH 7.4, 2 mM EDTA, 25 mM NaF, 1% Triton X-100); IP with Myc, Flag or HA antibody and protein A/G beads overnight at 4 °C; immunoblotting; in Figure 4E with or without HA-RLIM (1 or 2 μg)
T3 sequence: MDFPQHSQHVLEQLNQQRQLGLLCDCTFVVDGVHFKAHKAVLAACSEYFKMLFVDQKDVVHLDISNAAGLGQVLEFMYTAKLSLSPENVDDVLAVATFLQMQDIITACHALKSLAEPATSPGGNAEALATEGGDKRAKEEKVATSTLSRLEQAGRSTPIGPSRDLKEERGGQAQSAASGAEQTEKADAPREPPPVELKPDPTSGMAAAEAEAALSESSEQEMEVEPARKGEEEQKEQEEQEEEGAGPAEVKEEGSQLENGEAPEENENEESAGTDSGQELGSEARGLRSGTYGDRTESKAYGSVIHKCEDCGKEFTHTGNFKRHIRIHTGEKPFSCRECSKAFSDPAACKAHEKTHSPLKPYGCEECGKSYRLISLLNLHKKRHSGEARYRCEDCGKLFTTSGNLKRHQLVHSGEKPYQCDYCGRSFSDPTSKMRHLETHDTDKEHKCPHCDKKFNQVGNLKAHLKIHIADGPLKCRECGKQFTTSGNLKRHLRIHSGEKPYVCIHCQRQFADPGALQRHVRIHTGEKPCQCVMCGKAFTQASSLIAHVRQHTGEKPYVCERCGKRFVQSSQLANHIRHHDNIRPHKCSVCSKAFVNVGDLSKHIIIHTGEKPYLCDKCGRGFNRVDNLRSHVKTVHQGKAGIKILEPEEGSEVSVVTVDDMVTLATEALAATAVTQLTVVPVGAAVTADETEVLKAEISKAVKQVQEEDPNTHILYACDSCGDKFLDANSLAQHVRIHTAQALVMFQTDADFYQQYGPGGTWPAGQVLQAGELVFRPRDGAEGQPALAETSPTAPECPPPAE

binding [1]: binds
B1: Flag-MIZ1 (MYC-interacting zinc-finger protein 1, Flag tagged) (protein, UniProt Q13105 1-803)
chain: T3 sequence

binding [2]: binds
B2: endogenous MIZ1 (protein, UniProt Q13105 1-803)
chain: T3 sequence

binding [3]: binds
B3: Myc-RLIM (RING finger LIM domain-binding protein, Myc tagged) (protein, UniProt Q9NVW2 1-624)
chain: T1 sequence

binding [1]: binds
B4: MIZ1 C terminal region (637-803aa) truncation fragment (domain or fragment, UniProt Q13105 637-803)
chain: HQGKAGIKILEPEEGSEVSVVTVDDMVTLATEALAATAVTQLTVVPVGAAVTADETEVLKAEISKAVKQVQEEDPNTHILYACDSCGDKFLDANSLAQHVRIHTAQALVMFQTDADFYQQYGPGGTWPAGQVLQAGELVFRPRDGAEGQPALAETSPTAPECPPPAE
